# Earlier results, collected in patent US20240335575A1, “METHOD AND APPARATUS FOR INACTIVATING PATHOGENS IN UNITS OF WHOLE BLOOD USING SUPERPARAMAGNETIC NANOPARTICLES COATED WITH CHEMILUMINESCENCE REAGENTS AND BROAD-SPECTRUM ANTI-VIRAL THERAPEUTICS” (Aphios Corporation, priority 2021, published 2024).
# At least one structure is not confirmed: it was looked up by name or label, or the drawing left a doubt.
# System: HIV
# Conditions: cited from earlier work
compound,measurement,setting,value
Cc1cc(O)c2c(=O)c3c(O)cc(O)c4c5c(O)cc(O)c6c(=O)c7c(O)cc(C)c8c1c2c(c34)c(c78)c65 [Hypericin],HIV rendered non-infective,fluorescent light,over 10^6 TCID50
same,HIV inactivated,"in the dark, in the presence of a “molecular flashlight”, cell culture media in vitro, Castor et al. US patent 2006",10^6 TCID50
same,viricidal effects,virus treated with hypericin in complete darkness,"minimal, if at all detectable"
